Measured values taken from publication PMC9976406, “ANGPTL2 binds MAG to efficiently enhance oligodendrocyte differentiation” (Cell & Bioscience, 2023).
Results are given in words; binding and its absence hold for the method and conditions named. For some assays here: Binding seen in cells or lysates may run through a third protein. Some results given as binding are weak or reduced against the parent protein; the word gives no strength. Sequences can lack the tags named with a protein.

T1: murine MAG, full-length, fused with EGFP (N1-mMAG-EGFP) (murine) (UniProt P20917)
T1 sequence: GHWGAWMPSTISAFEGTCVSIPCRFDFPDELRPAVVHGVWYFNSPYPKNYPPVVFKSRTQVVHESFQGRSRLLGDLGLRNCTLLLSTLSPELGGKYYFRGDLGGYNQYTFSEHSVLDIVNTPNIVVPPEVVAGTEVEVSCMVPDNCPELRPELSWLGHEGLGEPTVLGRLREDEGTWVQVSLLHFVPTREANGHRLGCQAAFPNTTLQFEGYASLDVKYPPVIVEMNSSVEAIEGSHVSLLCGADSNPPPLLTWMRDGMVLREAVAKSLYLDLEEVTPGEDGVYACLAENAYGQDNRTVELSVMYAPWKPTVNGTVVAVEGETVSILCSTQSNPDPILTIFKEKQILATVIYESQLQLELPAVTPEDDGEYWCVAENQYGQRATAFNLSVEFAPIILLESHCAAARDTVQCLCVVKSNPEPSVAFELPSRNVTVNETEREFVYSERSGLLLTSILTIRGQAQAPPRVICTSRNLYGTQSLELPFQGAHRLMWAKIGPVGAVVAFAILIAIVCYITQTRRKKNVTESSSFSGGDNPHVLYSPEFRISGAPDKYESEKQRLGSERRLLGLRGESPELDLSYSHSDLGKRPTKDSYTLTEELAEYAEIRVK

T2: murine MAG-ECD-Fc (extracellular domain of murine MAG fused with human Fc) (murine) (UniProt P20917)
T2 sequence: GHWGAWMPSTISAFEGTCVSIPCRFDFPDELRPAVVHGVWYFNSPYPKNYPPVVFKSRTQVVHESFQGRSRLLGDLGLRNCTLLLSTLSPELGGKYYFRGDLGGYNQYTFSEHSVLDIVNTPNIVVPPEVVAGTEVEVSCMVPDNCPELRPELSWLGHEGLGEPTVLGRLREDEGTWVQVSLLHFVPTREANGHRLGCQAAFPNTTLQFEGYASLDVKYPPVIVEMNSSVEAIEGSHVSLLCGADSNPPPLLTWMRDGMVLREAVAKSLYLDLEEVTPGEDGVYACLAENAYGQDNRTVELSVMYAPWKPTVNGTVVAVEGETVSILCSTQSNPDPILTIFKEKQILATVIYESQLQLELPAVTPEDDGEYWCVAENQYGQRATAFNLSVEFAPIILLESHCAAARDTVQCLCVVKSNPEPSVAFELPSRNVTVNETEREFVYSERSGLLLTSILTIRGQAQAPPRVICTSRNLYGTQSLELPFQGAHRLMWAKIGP


Legend:
[1] = biological target: T1, murine MAG, full-length, fused with EGFP (N1-mMAG-EGFP) (murine); assay: flow cytometry on cells; 293T cells transfected with MAG-GFP plasmids, collected after 48 h, incubated with ANGPTL2-Flag (or other ANGPTL) conditioned medium at 4 °C for 1-2 h, then anti-Flag-APC and PI; binding read in EGFP+ cells
[2] = biological target: T2, murine MAG-ECD-Fc (extracellular domain of murine MAG fused with human Fc) (murine); assay: co-IP; MAG-ECD-Fc and ANGPTL2-strep II co-transfected in 293T; supernatant incubated with Protein A/G beads at 4 °C for 8 h, washed with PBS with 0.1% NP-40 5 times; blots with anti-strepII or anti-Fc

binding [1] | binding [2] | Binder
binds |  | ANGPTL2-Flag (angiopoietin-like protein 2) (ligand, UniProt Q9UKU9 23-493, looked up, angiopoietin-like protein 2 (ANGPTL2), secreted into the conditioned medium of 293T cells; The same ANGPTL2-Flag was used on human and murine MAG; also called purified ANGPTL2 protein; source: 293T, transfected with CMV-ANGPTL2-Flag; conditioned medium collected after 48 h, or purified from it with M2 resin) QEDGFEGTEEGSPREFIYLNRYKRAGESQDKCTYTFIVPQQRVTGAICVNSKEPEVLLENRVHKQELELLNNELLKQKRQIETLQQLVEVDGGIVSEVKLLRKESRNMNSRVTQLYMQLLHEIIRKRDNALELSQLENRILNQTADMLQLASKYKDLEHKYQHLATLAHNQSEIIAQLEEHCQRVPSARPVPQPPPAAPPRVYQPPTYNRIINQISTNEIQSDQNLKVLPPPLPTMPTLTSLPSSTDKPSGPWRDCLQALEDGHDTSSIYLVKPENTNRLMQVWCDQRHDPGGWTVIQRRLDGSVNFFRNWETYKQGFGNIDGEYWLGLENIYWLTNQGNYKLLVTMEDWSGRKVFAEYASFRLEPESEYYKLRLGRYHGNAGDSFTWHNGKQFTTLDRDHDVYTGNCAHYQKGGWWYNACAHSNLNGVWYRGGHYRSRYQDGVYWAEFRGGSYSLKKVVMMIRPNPNTFH
 | binds | ANGPTL2-strep II (ligand, UniProt Q9UKU9 23-493) QEDGFEGTEEGSPREFIYLNRYKRAGESQDKCTYTFIVPQQRVTGAICVNSKEPEVLLENRVHKQELELLNNELLKQKRQIETLQQLVEVDGGIVSEVKLLRKESRNMNSRVTQLYMQLLHEIIRKRDNALELSQLENRILNQTADMLQLASKYKDLEHKYQHLATLAHNQSEIIAQLEEHCQRVPSARPVPQPPPAAPPRVYQPPTYNRIINQISTNEIQSDQNLKVLPPPLPTMPTLTSLPSSTDKPSGPWRDCLQALEDGHDTSSIYLVKPENTNRLMQVWCDQRHDPGGWTVIQRRLDGSVNFFRNWETYKQGFGNIDGEYWLGLENIYWLTNQGNYKLLVTMEDWSGRKVFAEYASFRLEPESEYYKLRLGRYHGNAGDSFTWHNGKQFTTLDRDHDVYTGNCAHYQKGGWWYNACAHSNLNGVWYRGGHYRSRYQDGVYWAEFRGGSYSLKKVVMMIRPNPNTFH
